40 compounds from PubChem BioAssay AID493014 (National Center for Advancing Translational Sciences (NCATS), 2011) can be followed below.

Molecules are shown by their SMILES. The list shows a part of the results. These are further read-outs of the screen, such as a control signal, another cell line or another target. No call is given for them. The list favours compounds with an active or inconclusive main result. Words in brackets tell the shape of the fitted curve; partial curves, single points and poor fits give uncertain potencies.

This test can be described thus: qHTS Assay to Find Inhibitors of Chronic Active B-Cell Receptor Signaling. To be noted: ABC-DLBCL IkBa-CBG/CBR reporter, luminescence ratio (green luciferase fused to IkBa over red control in TMD8 lymphoma cells), 4 h. The essentials:
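TMD8 ABC-DLBCL cells carrying doxycycline-inducible green luciferase fused to IkappaBalpha plus unfused red luciferase were exposed to compounds (up to 46 uM) for 4 hrs at 37C. Activity came from the overlap-corrected green/red luminescence ratio.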

Where [1] appears, read: measured here: CBR red luminescence, cell number.
The mark [2] stands for this setting: measured here: IkBa-CBG green luminescence.

As to `Fc1ccccc1COc1ccc(Br)cc1CNCc1cccnc1`, under setting [1], the concentration at half-maximal activity (AC50) is 25.1 µM [falling, single point]. Turning to `Cc1ccc(NC(=O)C(C)SCc2nc3sc(C)c(C)c3c(=O)[nH]2)nc1` (stereo not drawn), the concentration at half-maximal activity (AC50) under setting [1] was 20.6 µM [rising, single point]. Turning to `Cc1cc(NC(=O)c2cccc(C(=O)Nc3cc(C)on3)n2)no1`, under setting [1], the AC50 is 6.51 µM [falling, single point]. Regarding `Cn1c(=O)[nH]c2ncccc21`, the concentration at half-maximal activity (AC50) under setting [1] was 35.5 µM [falling, single point].

Consider `O=C(NCc1cccs1)Nc1ccc(Cl)cc1`, for which the AC50 under setting [1] is 13 µM [falling, partial curve, poor fit].

For `CC(C)c1nc(CNC(=O)CCc2nnc(-c3ccsc3)o2)cs1`, the AC50 under setting [1] was 10 µM [rising, partial curve, poor fit]. In the case of `Cc1cc(/C=c2/sc3nc4ccccc4n3c2=O)c(C)n1-c1ccccn1`, the AC50 under setting [1] was 3.98 µM [rising, partial curve, poor fit]. `CCCCC(=O)NNC(=S)NC(=O)c1ccc([N+](=O)[O-])cc1`: under setting [1], the half-maximal activity concentration (AC50) was 14.1 µM [rising, single point]. For the compound `COc1ccc(CNC(=O)CN(Cc2ccc(Cl)cc2)S(=O)(=O)c2ccccc2)cc1`, under setting [1], the AC50 was 29.1 µM [falling, single point]. Turning to `O=C(Nc1ccon1)c1cc(-c2ccccc2)nc2ccccc12`, the AC50 was 8.2 µM [falling, partial curve] under setting [1] and 2.91 µM [rising, full curve, poor fit] under setting [2]. For the compound `O=C(c1ccc(COc2ccccc2[N+](=O)[O-])o1)N1CCCCC1`, the AC50 under setting [1] is 15.8 µM [rising, partial curve, poor fit]. For `COc1cccc(NC(=O)CN2C(=O)NC(C)(CCC(C)C)C2=O)c1` (stereo not drawn), under setting [1], the AC50 is 14.1 µM [falling, partial curve]. Same read-out and setting: for `CCC1(c2ccccc2)NC(=O)N(CC(=O)NCCN2C(=O)S/C(=C\c3cccnc3)C2=O)C1=O` (stereo not drawn) the value was 29.1 µM [falling, single point]; for `COc1ccc(C(=O)Nc2ccc(N3CCN(C(=O)c4cccs4)CC3)cc2)cc1Br`, 35.5 µM [falling, single point]; for `CCc1nnc(NC(=O)CN2CCN(S(C)(=O)=O)CC2)s1`, 14.1 µM [rising, partial curve, poor fit]. Still for that read-out and setting: for `CCOc1cc(NC(=S)NC)c(OCC)cc1NC(=O)c1ccc(OC)cc1` the value was 22.4 µM [rising, single point]; for `O=C(CSc1cccs1)Nc1ccc(Cl)cc1`, 0.447 µM [rising, full curve, poor fit].

With `CCOC(=O)c1c(C)n(C)c2ccc(O)c(CN3CCCCC3)c12`, the AC50 under setting [1] was 6.51 µM [falling, partial curve, poor fit]. `COC(=O)c1cc2c([nH]c3ccccc32)c(C)n1`: the AC50 under setting [1] is 5.62 µM [falling, partial curve, poor fit]. As for `Cc1ccc(C(=O)N/C(=C/c2ccc(-c3cccc([N+](=O)[O-])c3)o2)C(=O)NCCCN(C)C)cc1`, the AC50 under setting [1] was 22.4 µM [falling, single point]. As for `O=C(O)c1ccc(-n2nnnc2SCc2cccc(Br)c2)cc1`, the AC50 under setting [1] is 0.794 µM [rising, full curve, poor fit]. With `CCc1ccc(/C=N/NC(=O)c2cc(-c3cccc([N+](=O)[O-])c3)n[nH]2)cc1`, the AC50 is, setting by setting: under setting [1], 17.8 µM [rising, partial curve]; under setting [2], 10 µM [falling, partial curve, poor fit]. For `COc1ccccc1/C=C1/SC(=S)N(C(C)C(=O)NC2C=CS(=O)(=O)C2)C1=O` (stereo not drawn), under setting [1], the AC50 is 35.5 µM [falling, single point].

In the case of `C=CCn1c(SCCN2CCCCC2)nc2c1c(=O)[nH]c(=O)n2C`, the AC50 under setting [1] was 32.6 µM [rising, single point]. Take `O=C(COC(=O)c1cc(NS(=O)(=O)c2cccs2)ccc1O)Nc1ccc(F)c(F)c1F`: the AC50 under setting [1] was 35.5 µM [falling, single point]. In the case of `Cc1ccc(NC(=O)C/C(N)=N/O)cc1Cl`, under setting [1], the AC50 was 14.1 µM [rising, single point]. `Cc1ccc(-c2cc(C(=O)NCc3ccco3)no2)cc1`: the AC50 under setting [1] was 2.59 µM [falling, full curve, poor fit].

Consider `COc1ccc(C(=O)CSc2nnc(CNc3ccc(F)cc3)o2)cc1`, for which the AC50 under setting [1] was 35.5 µM [rising, partial curve, poor fit].

On to `O=C(N/N=C/c1ccc2c(c1)OCO2)c1cc(-c2ccccc2Cl)nc2ccccc12`, for which the AC50 under setting [1] is 3.66 µM [rising, single point].

With `CC(=O)NCCNc1nc2c(-c3ccccc3)nnn2c2ccccc12`, the AC50 under setting [1] was 1.12 µM [falling, full curve]. For `CN(c1ccccc1)S(=O)(=O)c1cccc(NC(=O)c2cc3ccccc3oc2=O)c1`, under setting [1], the concentration at half-maximal activity (AC50) is 15.8 µM [falling, single point]. Regarding `CCC1Oc2ccc(C)cc2N(CC(=O)N(Cc2cccnc2)Cc2cccc(F)c2)C1=O` (stereo not drawn), the AC50 under setting [1] is 0.00411 µM [rising, full curve, poor fit]. As to `O=c1c(-c2ccccc2)coc2c(CN3CCOCC3)c(O)ccc12`, the AC50 under setting [1] is 25.9 µM [rising, single point].

As for `CCOc1ccc(C(=O)Nc2nc(C)c(C(=O)OC)s2)cc1`, under setting [1], the AC50 was 0.631 µM [falling, partial curve, poor fit]. In the case of `O=C(NNC(=S)NC1CC2C=CC1C2)c1cccnc1` (stereo not drawn), the AC50 under setting [1] is 6.31 µM [rising, single point].

As to `O=C(NC1(C(F)(F)F)N=C2SCCN2C1=O)c1cccnc1` (stereo not drawn), under setting [1], the AC50 was 5.17 µM [falling, single point].

`CCOc1ccc(-n2c(SCC(=O)NCc3ccco3)nc3ccccc3c2=O)cc1`: under setting [1], the AC50 was 2.82 µM [rising, partial curve, poor fit]. For `COc1ccc(NC(=O)C2C3C=CC4(O3)C2C(=O)N(CCN2CCCCC2)C4C(=O)NC2CCCCC2)cc1` (stereo not drawn), the concentration at half-maximal activity (AC50) under setting [1] was 1.78 µM [rising, full curve, poor fit]. Same read-out and setting: for `Cc1ccccc1S(=O)(=O)Cc1ccc(C(=O)NC2CCC(C)CC2)o1` (stereo not drawn) the value was 6.31 µM [falling, single point]. `Cc1ccc(/C=C/C(=O)Nc2cc(S(=O)(=O)N3CCOCC3)ccc2N2CCOCC2)cc1`: the AC50 under setting [1] was 5.8 µM [rising, partial curve, poor fit] and the AC50 under setting [2] was 25.9 µM [falling, partial curve, poor fit].
